{"source": "paper PMC9454088", "molecular_target": "alpha-synuclein oligomer (UniProt P37840)", "assay": "binding assay", "conditions": "alpha-synuclein oligomers; 10 mM Tris-HCl pH 7.4, 150 mM NaCl, 5 mM KCl, 37 C with agitation (aggregation); AUC at 20 C, 55,000 rpm; recombinant protein; residues 1-140; single-stranded DNA", "note": "Construct, isoform or probe ends are uncertain for at least one entry.", "data": [{"sequence": "GCCTGTGGTGTTGGGGCGGGTGCG [T-SO508 aptamer]", "values": [{"measurement": "Kd", "result": 68, "unit": "nM"}]}]}
